Measurements from PubChem BioAssay AID504834 (National Center for Advancing Translational Sciences (NCATS), 2011).
Screen size: about 320,000 compounds; about 22,000 (6.9%) were called active. Inconclusive results, whose numbers are uncertain, are shown with a selection of clear calls. Calls follow the shape of the dose curve; as a rule, active = well fitted inhibition curve with a large enough effect; inconclusive = small, poorly fitted or top-dose-only effect, or another doubt; inactive = no such curve, though single readings can be large or run the other way. Potencies of inconclusive entries are doubtful fits and often do not repeat.

experiment: Primary qHTS for delayed death inhibitors of the malarial parasite plastid, 96 hour incubation; settings: P. falciparum luciferase reporter growth; series mostly up to 28.7 µM
Outline: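 Erythrocytes infected with luciferase-expressing P. falciparum were dispensed at 2% hematocrit and 0.05% parasitemia (final), then incubated with compounds 96 hours at 37 C in 5% CO2. Luminescence after detection reagent addition reported growth.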
Potency is read from the fitted curve at half-maximal effect.

SMILES	Potency
O=C(O)C(Cc1c[nH]c2ccccc12)NS(=O)(=O)c1ccc(Cl)c(C(F)(F)F)c1 (stereo not drawn)	inconclusive: 4.15 µM [inhibitor, partial curve, poor fit]
O=c1[nH]c(=O)n(Cc2ccc(F)cc2)c(O)c1C=NCc1cccnc1	inactive
CC(C)CCN1CCN(Cc2ccc(N3CCNC3=O)cc2)CC1CCO (stereo not drawn)	inconclusive: 9.28 µM [inhibitor, partial curve, poor fit]
CCCn1nnc(NC(=O)c2ccc(F)cc2)n1	inactive
C/C(=N\OCC(=O)OCC(=O)NCc1ccccc1)c1ccc2c(c1)OCO2	inactive
CCCNc1c(NS(=O)(=O)c2ccc(C3CCCCC3)cc2)c(=O)oc2ccccc12	inconclusive: 18.5 µM [inhibitor, single point]
CCC(=O)NC(=S)Nc1ccc(NC(=O)c2ccccc2[N+](=O)[O-])cc1	inactive
COc1cc(/C=C/c2cc[n+](C)cc2)ccc1OCC(=O)Nc1ccc(Cl)c(Cl)c1	inactive
O=C(NCCCc1ccccc1)c1ccc(F)cc1	active: 16.5 µM
OC(CNCc1cccnc1)COc1ccc2ccccc2c1 (stereo not drawn)	inactive
O=C(N/N=C/c1ccccc1F)c1cccc2ccccc12	inactive
Cc1ccc(CNC(=O)CN(C)S(=O)(=O)c2cccs2)cc1	inconclusive: 4.65 µM [inhibitor, partial curve, poor fit]
O=C(NCc1ccco1)c1ccccc1NC(=O)C1CC(=O)N(c2ccc(Cl)cc2)C1 (stereo not drawn)	active: 7.38 µM
COc1ccc(CCN(C(=O)Cn2nnc3ccccc32)C(C(=O)NCC2CCCO2)c2ccncc2)cc1OC (stereo not drawn)	inconclusive: 18.5 µM [inhibitor, single point]
Cc1ccc2oc(-c3cccc(NC(=O)/C=C/c4cccc([N+](=O)[O-])c4)c3C)nc2c1	active: 2.33 µM
Cc1cc(C)cc(NC(=O)CCc2c(C)nn(-c3ccc(N4CCOCC4)nn3)c2C)c1	inconclusive: 18.5 µM [inhibitor, single point]
CCOC(=O)C1=C(N)Oc2cc(O)ccc2C1c1ccc(C)cc1 (stereo not drawn)	inconclusive: 4.15 µM [inhibitor, single point]
CCOc1ccc(-n2c(O)c(C=NCCN3CCNCC3)c(=O)[nH]c2=O)cc1	inconclusive: 5.86 µM [inhibitor, partial curve, poor fit]
CC(NC(=O)Cc1cccs1)c1ccccc1 (stereo not drawn)	inactive
Cc1cccc(NC(=O)CCN2C(=O)C3C4C=CC(C4)C3C2=O)n1 (stereo not drawn)	inconclusive: 4.15 µM [inhibitor, full curve, poor fit]
Cc1ccc(NC(=O)c2cccc(OC(F)F)c2)c(OC(F)F)c1	inactive
CC1(c2ccc(Cl)cc2)NC(=O)N(CC(=O)NCc2ccc(F)cc2)C1=O (stereo not drawn)	inactive
CC1CCN(c2ccc3nnc(CCC(=O)NCc4ccco4)n3n2)CC1	inconclusive: 18.5 µM [inhibitor, partial curve, poor fit]
CC(C)CCN1CCN(Cc2cnc(N3CCCC3)s2)CC1CCO (stereo not drawn)	inconclusive: 8.28 µM [inhibitor, partial curve, poor fit]
CCCNC(=O)Cn1c2ccccc2c2nc(=O)cc(C)n21	active: 8.28 µM

Compounds shown so far with a furan ring, fused or not (2):
SMILES	Potency
O=C(NCc1ccco1)c1ccccc1NC(=O)C1CC(=O)N(c2ccc(Cl)cc2)C1 (stereo not drawn)	active: 7.38 µM
CC1CCN(c2ccc3nnc(CCC(=O)NCc4ccco4)n3n2)CC1	inconclusive: 18.5 µM [inhibitor, partial curve, poor fit]

(list continues)

SMILES	Potency
CCOC(=O)C1=C(C)NC(=O)C1CC(=O)O (stereo not drawn)	inconclusive: 14.7 µM [inhibitor, single point]
COc1cccc(/C=C/C(=O)NCc2ccc3c(c2)OCO3)c1	inactive
CCOC(=O)C1=C(O)C(Nc2nccs2)(C(F)(F)F)N=C1C (stereo not drawn)	inconclusive: 0.0928 µM [inhibitor, partial curve, poor fit]
CC1CCN(c2ccc3nnc(CCC(=O)NCCCOC(C)C)n3n2)CC1	inactive
O=C(O)CC(C(=O)O)N1C(=O)/C(=C/c2ccc(-c3nc4ccccc4s3)o2)SC1=S (stereo not drawn)	inconclusive: 10.4 µM [inhibitor, single point]
COc1ccc(N2CCN(C(=O)c3ccc(NS(=O)(=O)c4ccc(F)cc4)cc3)CC2)cc1	inconclusive: 0.233 µM [inhibitor, full curve, poor fit]
COP(=O)(OC)C(NC(=O)Nc1ccccc1)c1ccccc1 (stereo not drawn)	inactive
Cc1cc(C)c(S(C)(=O)=O)c(Sc2ccc(Cl)cc2)n1	inconclusive: 20.8 µM [inhibitor, partial curve, poor fit]
O=C(COc1ccccc1Cl)N1N=C(c2cccs2)CC1c1ccco1 (stereo not drawn)	inconclusive: 0.0738 µM [inhibitor, full curve, poor fit]
COc1ccc(-c2nc(NC(=O)Cn3cnnn3)sc2C)cc1	inactive
Cc1onc(-c2ccccc2Cl)c1C(=O)N1CCOC12CCCCC2	inactive
O=C(c1ccco1)N1CCN(C(c2ccc(Cl)cc2)c2nnnn2Cc2ccccc2)CC1 (stereo not drawn)	active: 10.4 µM
Cc1cc(C)c2cc(C#N)c(N3CCCN(C(=S)NCCCN(C)C)CC3)nc2c1	active: 10.4 µM
CCN1c2ccccc2-c2nc3ccccc3n2C1c1ccncc1 (stereo not drawn)	active: 10.4 µM
CCCc1cc(N2CCCC2)n2nc(C)c(-c3ccccc3)c2n1	inconclusive: 16.5 µM [inhibitor, partial curve]
COc1ccc(Cc2nc(-c3ccc(-n4cccc4)cc3)no2)cc1OC	inconclusive: 3.7 µM [inhibitor, partial curve, poor fit]
N/C(=N\c1nc2c(c(=O)[nH]1)CCC2)Nc1ccccc1C(F)(F)F	inactive
COc1ccc(C2CC(c3ccc(C)cc3)=NN2C(=O)CCC(=O)O)cc1OC (stereo not drawn)	inconclusive: 10.4 µM [inhibitor, single point]
CCOC(=O)C1CCCN(C(=O)c2ccc(S(=O)(=O)NCc3ccco3)cc2)C1 (stereo not drawn)	active: 11.7 µM
Cc1ccc(Cn2cccc(NC(=O)NC3CCCCC3)c2=O)cc1	inactive
COc1ccc(-c2cc(-c3ccccc3)nc(NN)n2)cc1OC	inconclusive: 18.5 µM [inhibitor, single point]
CCN(Cc1ccccc1)C(=O)c1cc2cc(OC)c(OC)cc2[nH]1	inconclusive: 10.4 µM [inhibitor, partial curve]
COC(=O)c1cc(S(=O)(=O)NCC2CCN(CCc3ccc(OC)cc3)CC2)c[nH]1	inactive
CCn1c(CNC(=O)c2ccco2)nnc1SCCOc1ccccc1	inconclusive: 11.7 µM [inhibitor, single point]
COc1ccc2[nH]c(-c3cccc(F)c3)cc(=O)c2c1	active: 5.22 µM

SMILES	Potency
CN1CCN(c2ccc(S(=O)(=O)N3CCCCC3)cn2)CC1	inconclusive: 18.5 µM [inhibitor, single point]
COc1ccc(NC(=O)CN2C(=O)/C(=C3\SC(=S)N(C4CCS(=O)(=O)C4)C3=O)c3ccccc32)cc1 (stereo not drawn)	inconclusive: 13.1 µM [inhibitor, partial curve, poor fit]
CCC(=O)N(CCC(Cc1ccccc1)c1ccco1)Cc1ccco1 (stereo not drawn)	inactive
COc1ccc(NC(=O)CN(C)C(=O)c2ccccc2Sc2ncnc3sc(C)c(C)c23)cc1	inconclusive: 18.5 µM [inhibitor, single point]
CCn1ccnc1CN(C)C(=O)c1cc(COc2ccccc2SC)on1	inconclusive: 20.8 µM [inhibitor, single point]
O=C(Cc1ccccc1)N1CCN(Cc2ccccc2Cl)CC1	active: 4.15 µM
O=C(CC1NC(=S)NC1=O)c1ccc(Cl)cc1 (stereo not drawn)	inactive
CCOC(=O)c1c(C)nc2ccc(C)cn12	inconclusive: 10.4 µM [inhibitor, single point]
Cc1ccc(Cn2nc(C)c(C(=O)NCC(c3ccc(F)cc3)N3CCOCC3)c2Cl)cc1 (stereo not drawn)	inconclusive: 13.1 µM [inhibitor, partial curve, poor fit]
COc1cc(NC(C)CCCN)c2ncccc2c1Oc1ccccc1 (stereo not drawn)	active: 2.08 µM
COc1ccc(CN2CCNC(=O)C2CC(=O)N2CCCCO2)cc1OC (stereo not drawn)	inactive
COCCn1c(SCC(=O)Nc2cc(C)on2)nc2cc(Cl)ccc2c1=O	inconclusive: 11.7 µM [inhibitor, single point]
Cn1ncc([N+](=O)[O-])c1C(=O)Nc1ccc(-c2ccccc2)cc1	inactive
O=C(Cc1ccccc1)NC(NCCc1ccccc1)C(Cl)(Cl)Cl (stereo not drawn)	inconclusive: 11.7 µM [inhibitor, single point]
COC(=O)c1cc2c(-c3ccccc3)c(C)c3ccccn3c-2c1C(=O)OC	inconclusive: 7.38 µM [inhibitor, partial curve, poor fit]
COc1cccc(-c2nc(CS(=O)CC(=O)NCc3ccc(F)cc3)c(C)o2)c1 (stereo not drawn)	inactive
CCc1nc2ccc(C(=O)N3CCN(c4cccc(Cl)c4)CC3)cc2nc1CC	active: 7.38 µM
CC(C)CC(=O)Nc1nnc(S(=O)(=O)N2c3ccccc3CC2C)s1 (stereo not drawn)	active: 9.28 µM
CCOC(=O)c1cccc(NC(=O)CN(C)S(=O)(=O)c2cnc[nH]2)c1	inconclusive: 0.0029 µM [inhibitor, full curve, poor fit]
O=S(=O)(c1ccc(Cl)cc1)N1CCN(C(=S)Nc2ccccc2F)CC1	inconclusive: 0.465 µM [inhibitor, full curve, poor fit]
O=C(c1cc(Cl)ccc1Cl)N1CCc2ccccc21	inconclusive: 18.5 µM [inhibitor, single point]
CCOC(=O)c1ccc(NS(=O)(=O)c2cc3c(cc2C)NC(=O)CO3)cc1	inconclusive: 14.7 µM [inhibitor, single point]
COC(=O)c1c(-c2ccc(C)cc2)csc1NC(=S)NC(=O)c1ccc(F)cc1	active: 8.28 µM

Entries listed so far that contain a nitro group on carbon:
SMILES	Potency
CCC(=O)NC(=S)Nc1ccc(NC(=O)c2ccccc2[N+](=O)[O-])cc1	inactive
Cc1ccc2oc(-c3cccc(NC(=O)/C=C/c4cccc([N+](=O)[O-])c4)c3C)nc2c1	active: 2.33 µM
Cn1ncc([N+](=O)[O-])c1C(=O)Nc1ccc(-c2ccccc2)cc1	inactive

A stretch from further up, for reference:
SMILES	Potency
CCOC(=O)c1cccc(NC(=O)CN(C)S(=O)(=O)c2cnc[nH]2)c1	inconclusive: 0.0029 µM [inhibitor, full curve, poor fit]
O=S(=O)(c1ccc(Cl)cc1)N1CCN(C(=S)Nc2ccccc2F)CC1	inconclusive: 0.465 µM [inhibitor, full curve, poor fit]
